In the supplement of paper PMC4604168 (melanoma cell lines):
The list shows a part of the results. Repeats are few or missing, and single values can be far off.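 Cells were imaged in 1,536-well plates, and nuclei stained with an antibody against cleaved PARP were counted against all DNA-stained nuclei to give the apoptosis fraction. Screening doses were chosen to leave most cells alive, and resting and induced cleaved-PARP levels differ strongly between cell lines.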

What was measured:
Test in all cases: cleaved PARP positive nuclei fraction relative to DMSO control; melanoma cells; higher = more apoptosis
Details in all cases: library dose: low library concentration; 72 h
MZ2-MEL = test system: MZ2-MEL
MeWo = test system: MeWo
RPMI7951 = test system: RPMI7951
RVH-421 = test system: RVH-421
SkMel28 = test system: SkMel28
SkMel2 = test system: SkMel2
SkMel30 = test system: SkMel30
SkMel5 = test system: SkMel5
UACC257 = test system: UACC257
UACC62 = test system: UACC62

| Compound | cleaved PARP positive nuclei fraction (MZ2-MEL) | cleaved PARP positive nuclei fraction (MeWo) | cleaved PARP positive nuclei fraction (RPMI7951) | cleaved PARP positive nuclei fraction (RVH-421) | cleaved PARP positive nuclei fraction (SkMel28) | cleaved PARP positive nuclei fraction (SkMel2) | cleaved PARP positive nuclei fraction (SkMel30) | cleaved PARP positive nuclei fraction (SkMel5) | cleaved PARP positive nuclei fraction (UACC257) | cleaved PARP positive nuclei fraction (UACC62) |
| --- | --- | --- | --- | --- | --- | --- | --- | --- | --- | --- |
| COCC[n+]1c2c(n(Cc3cnccn3)c1C)C(=O)c1ccccc1C2=O + CC1(C)NC(=O)N(c2ccc([N+](=O)[O-])c(C(F)(F)F)c2)C1=O [nilutamide] (first compound 0.0004 µM, partner dose 1 µM) | 629% | 108% | 90.2% | 38.1% | 173% | 176% | 77% | 533% | 152% | 212% |
| CC(=O)c1c(C)c2cnc(Nc3ccc(N4CCNCC4)cn3)nc2n(C2CCCC2)c1=O [palbociclib] + C=CCn1c(=O)c2cnc(Nc3ccc(N4CCN(C)CC4)cc3)nc2n1-c1cccc(C(C)(C)O)n1 [MK1775] (first compound 0.04 µM, partner dose 0.02 µM) | 150% | 60.2% | 144% | 123% | 48.6% | 81.1% | 124% | 103% | 181% | 131% |
| C=CCNC1=C2C[C@@H](C)C[C@H](OC)[C@H](O)[C@@H](C)/C=C(\C)[C@H](OC(N)=O)[C@@H](OC)/C=C\C=C(/C)C(=O)NC(=CC1=O)C2=O [Tanespimycin] + CCc1ccc(CCOc2ccc(CC3SC(=O)NC3=O)cc2)nc1 [pioglitazone] (first compound 0.002 µM, partner dose 2 µM) | 59.5% | 80.3% | 312% | 94.6% | 161% | 37.9% | 120% | 237% | 79.2% | 53.5% |
| OCCn1cc(-c2cnc3nnn(Cc4ccc5ncccc5c4)c3n2)cn1 + Cn1cncc1[C@@](N)(c1ccc(Cl)cc1)c1ccc2c(c1)c(-c1cccc(Cl)c1)cc(=O)n2C [tipifarnib] (first compound 1 µM, partner dose 0.01 µM) | 148% | 40.6% | 98.6% | 87.4% | 53.1% | 201% | 55.6% | 30.3% | 147% | 108% |
| Cn1nnc2c(C(N)=O)ncn2c1=O [temozolomide] + O=C(Nc1cccc(Cl)c1)Nc1ncc(CCNc2ncnc3ccsc23)s1 [SNS314] (first compound 2 µM, partner dose 0.0008 µM) | 52.2% | 141% | 34.1% | 162% | 78.4% | 79.5% | 62.3% | 141% | 76.4% | 72% |
| Cc1nc(Nc2ncc(C(=O)Nc3c(C)cccc3Cl)s2)cc(N2CCN(CCO)CC2)n1 [dasatanib] + NCC(=O)Nc1ccc(-n2nc(C(F)(F)F)cc2-c2ccc3c(ccc4ccccc43)c2)cc1 [OSU03012] (first compound 0.004 µM, partner dose 1 µM) | 124% | 364% | 234% | 192% | 88.5% | 305% | 88.3% | 52.4% | 36.4% | 284% |
| OCc1c[nH]c2ccccc12 [Indole-3-carbinol] + Cc1cc(N2CCOCC2)cc2[nH]c(-c3c(NC[C@@H](O)c4cccc(Cl)c4)cc[nH]c3=O)nc12 [BMS536924] (first compound 0.8 µM, partner dose 0.2 µM) | 145% | 66.8% | 189% | 131% | 203% | 145% | 116% | 54.9% | 182% | 94.4% |
| Cn1nnc2c(C(N)=O)ncn2c1=O [temozolomide] + Cn1cncc1[C@@](N)(c1ccc(Cl)cc1)c1ccc2c(c1)c(-c1cccc(Cl)c1)cc(=O)n2C [tipifarnib] (first compound 2 µM, partner dose 0.01 µM) | 76.8% | 99.4% | 56.9% | 296% | 73.6% | 165% | 92.9% | 134% | 289% | 448% |
| OCc1c[nH]c2ccccc12 [Indole-3-carbinol] + Cc1cc([N+](=O)[O-])ccc1NS(=O)(=O)c1cc(Cl)ccc1Cl [FH535] (first compound 0.8 µM, partner dose 1 µM) | 120% | 44% | 62.5% | 130% | 47% | 115% | 42.2% | 88.8% | 191% | 88.4% |
| Cc1ccc(NC(=O)c2cccc(N(C)C)c2)cc1NC(=O)c1ccc(O)cc1 + O=C(Nc1cccc(Cl)c1)Nc1ncc(CCNc2ncnc3ccsc23)s1 [SNS314] (first compound 2 µM, partner dose 0.0008 µM) | 147% | 214% | 138% | 219% | 325% | 65% | 69.7% | 70% | 104% | 69.3% |
| C=CCNC1=C2C[C@@H](C)C[C@H](OC)[C@H](O)[C@@H](C)/C=C(\C)[C@H](OC(N)=O)[C@@H](OC)/C=C\C=C(/C)C(=O)NC(=CC1=O)C2=O [Tanespimycin] + O=C1NC(=O)/C(=C/c2ccc(-c3ccc(F)cc3O)o2)S1 [AS252424] (first compound 0.002 µM, partner dose 1 µM) | 138% | 72.2% | 106% | 78.3% | 99.7% | 87.6% | 90.2% | 693% | 218% | 67.5% |
| Clc1ccc(Nc2nnc(Cc3ccncc3)c3ccccc23)cc1 [vatalanib] + CN(NC(=O)CC(=O)NN(C)C(=S)c1ccccc1)C(=S)c1ccccc1 [STA4783] (first compound 2 µM, partner dose 0.006 µM) | 105% | 211% | 56.9% | 213% | 32.7% | 50.8% | 120% | 579% | 60.2% | 139% |
| Clc1ccc(Nc2nnc(Cc3ccncc3)c3ccccc23)cc1 [vatalanib] + Cc1ccc(NC(=O)c2cccc(N(C)C)c2)cc1NC(=O)c1ccc(O)cc1 [ZM336372] (first compound 2 µM, partner dose 2 µM) | 93.7% | 157% | 97.9% | 138% | 40.9% | 109% | 78.6% | 97.7% | 32.3% | 70.6% |
| OCc1c[nH]c2ccccc12 [Indole-3-carbinol] + COc1cc2ncnc(Nc3ccc(Oc4ccccc4)cc3)c2cc1OC [SrcI1] (first compound 0.8 µM, partner dose 2 µM) | 98.5% | 129% | 71.4% | 20.8% | 211% | 89.2% | 169% | 35.8% | 51.2% | 113% |
| CC(=O)c1c(C)c2cnc(Nc3ccc(N4CCNCC4)cn3)nc2n(C2CCCC2)c1=O [palbociclib] + O=C(Nc1ccccc1)c1cc([N+](=O)[O-])ccc1Cl [GW9662] (first compound 0.04 µM, partner dose 2 µM) | 66.8% | 90.5% | 134% | 174% | 94.6% | 153% | 70.4% | 111% | 108% | 213% |
| Cn1c(Nc2ccc(C(F)(F)F)cc2)nc2cc(Oc3ccnc(-c4ncc(C(F)(F)F)[nH]4)c3)ccc21 + CC(C)(C)c1cnc(CSc2cnc(NC(=O)C3CCNCC3)s2)o1 [SNS-032] (first compound 0.08 µM, partner dose 0.01 µM) | 223% | 107% | 277% | 117% | 237% | 116% | 112% | 67.2% | 782% | 797% |
| Cc1cc(N2CCOCC2)cc2[nH]c(-c3c(NC[C@@H](O)c4cccc(Cl)c4)cc[nH]c3=O)nc12 + CN(C)S(=O)(=O)c1ccc2c(c1)/C(=C/c1cc3c([nH]1)CCCC3)C(=O)N2 [SU6656] (first compound 0.2 µM, partner dose 0.4 µM) | 199% | 97.4% | 90.6% | 51.5% | 138% | 130% | 79% | 70.2% | 119% | 83.4% |
| CC1(C)NC(=O)N(c2ccc([N+](=O)[O-])c(C(F)(F)F)c2)C1=O [nilutamide] + NC(=O)Nc1cc(-c2cccc(F)c2)sc1C(=O)N[C@H]1CCCNC1 [AZD7762] (first compound 1 µM, partner dose 0.02 µM) | 77.7% | 51% | 143% | 48.9% | 44.1% | 46.1% | 55.8% | 39.4% | 67.3% | 62.2% |
| CC1(C)NC(=O)N(c2ccc([N+](=O)[O-])c(C(F)(F)F)c2)C1=O [nilutamide] + C=CCn1c(=O)c2cnc(Nc3ccc(N4CCN(C)CC4)cc3)nc2n1-c1cccc(C(C)(C)O)n1 [MK1775] (first compound 1 µM, partner dose 0.02 µM) | 57.3% | 33.5% | 108% | 110% | 121% | 79.4% | 63.7% | 99.9% | 109% | 164% |
| Cc1nc(Nc2ncc(C(=O)Nc3c(C)cccc3Cl)s2)cc(N2CCN(CCO)CC2)n1 [dasatanib] + O=C(Nc1cccc(Cl)c1)Nc1ncc(CCNc2ncnc3ccsc23)s1 [SNS314] (first compound 0.004 µM, partner dose 0.0008 µM) | 124% | 54.2% | 59.7% | 208% | 150% | 67.8% | 64.9% | 68.9% | 78.1% | 167% |
| CO[C@@H]1[C@H](N(C)C(=O)c2ccccc2)C[C@H]2O[C@]1(C)n1c3ccccc3c3c4c(c5c6ccccc6n2c5c31)C(=O)NC4 [Midostaurin] + O=C(Nc1cccc(Cl)c1)Nc1ncc(CCNc2ncnc3ccsc23)s1 [SNS314] (first compound 0.08 µM, partner dose 0.0008 µM) | 202% | 247% | 75.2% | 52.5% | 58.7% | 139% | 124% | 69.3% | 67.6% | 205% |
| CO[C@@H]1[C@H](N(C)C(=O)c2ccccc2)C[C@H]2O[C@]1(C)n1c3ccccc3c3c4c(c5c6ccccc6n2c5c31)C(=O)NC4 [Midostaurin] + CC(C)(C)c1cnc(CSc2cnc(NC(=O)C3CCNCC3)s2)o1 [SNS-032] (first compound 0.08 µM, partner dose 0.01 µM) | 197% | 80.7% | 151% | 112% | 85.9% | 118% | 71.4% | 149% | 256% | 108% |

Whole records as entered above. Values in the order: cleaved PARP positive nuclei fraction (MZ2-MEL)	cleaved PARP positive nuclei fraction (MeWo)	cleaved PARP positive nuclei fraction (RPMI7951)	cleaved PARP positive nuclei fraction (RVH-421)	cleaved PARP positive nuclei fraction (SkMel28)	cleaved PARP positive nuclei fraction (SkMel2)	cleaved PARP positive nuclei fraction (SkMel30)	cleaved PARP positive nuclei fraction (SkMel5)	cleaved PARP positive nuclei fraction (UACC257)	cleaved PARP positive nuclei fraction (UACC62)
CO[C@@H]1[C@H](N(C)C(=O)c2ccccc2)C[C@H]2O[C@]1(C)n1c3ccccc3c3c4c(c5c6ccccc6n2c5c31)C(=O)NC4 [Midostaurin] + O=C(Nc1cccc(Cl)c1)Nc1ncc(CCNc2ncnc3ccsc23)s1 [SNS314] (first compound 0.08 µM, partner dose 0.0008 µM) is listed as 202%	247%	75.2%	52.5%	58.7%	139%	124%	69.3%	67.6%	205%
CC(=O)c1c(C)c2cnc(Nc3ccc(N4CCNCC4)cn3)nc2n(C2CCCC2)c1=O [palbociclib] + C=CCn1c(=O)c2cnc(Nc3ccc(N4CCN(C)CC4)cc3)nc2n1-c1cccc(C(C)(C)O)n1 [MK1775] (first compound 0.04 µM, partner dose 0.02 µM) is listed as 150%	60.2%	144%	123%	48.6%	81.1%	124%	103%	181%	131%
